Measured values published in US5426099A, “Process for inducing analgesia, peptides and therapeutic compositions” (Rutgers, The State University of New Jersey, priority 1991, dated 1995).
At least one peptide structure holds a part that was inferred or is arguable (an end, a ring closure or a residue). Some compounds share one wording; it may come from a single statement. Where no end group is shown, it is not given here.

system: test animals; experiment: Analgesic activity in the test animals (Example 3); settings: in vivo

| Substance | analgesic activities in the test animals |
| --- | --- |
| TRLRKQMAVKKYL-NH2 [VIP 11-23] | showing analgesic activities |
| TRLRKQMAVKKYLN-NH2 [VIP 11-24] | showing analgesic activities |
| TRLRKQMAVKKYLNSI-NH2 [VIP 11-26] | showing analgesic activities |
| TRLRKQMAVKKYLNSIL-NH2 [VIP 11-27] | showing analgesic activities |
| TRLRKQMAVKKYLNS-NH2 [VIP 11-25] | showing analgesic activities |
